Test results from paper PMC10805922, “Exosomal secreted SCIMP regulates communication between macrophages and neutrophils in pneumonia” (Nature Communications, 2024).
Results are given in words; binding and its absence hold for the method and conditions named. Some entries that bind do so weakly or less than the wild type.

T1: human formyl peptide receptor 1 (FPR1) (human, UniProt P21462 1-350)
T1 construct: formyl peptide receptor 1, human, overexpressed in HEK293 cells; also called FPR1-HEK293; source: HEK293, transiently overexpressed
T1 sequence (looked up): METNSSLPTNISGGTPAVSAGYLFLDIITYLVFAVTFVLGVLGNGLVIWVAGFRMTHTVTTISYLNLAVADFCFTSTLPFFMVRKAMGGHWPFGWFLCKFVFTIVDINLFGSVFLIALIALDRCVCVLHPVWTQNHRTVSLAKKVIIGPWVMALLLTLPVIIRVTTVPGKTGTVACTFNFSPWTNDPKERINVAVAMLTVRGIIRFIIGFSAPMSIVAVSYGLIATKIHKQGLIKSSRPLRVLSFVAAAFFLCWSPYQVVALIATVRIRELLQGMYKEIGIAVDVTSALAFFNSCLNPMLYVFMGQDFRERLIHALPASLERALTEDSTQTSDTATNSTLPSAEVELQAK

T2: human formyl peptide receptor 2 (FPR2) (human, UniProt P25090 1-351)
T2 construct: formyl peptide receptor 2, human, overexpressed in HEK293 cells; also called FPR2-HEK293; source: HEK293, transiently overexpressed
T2 sequence (looked up): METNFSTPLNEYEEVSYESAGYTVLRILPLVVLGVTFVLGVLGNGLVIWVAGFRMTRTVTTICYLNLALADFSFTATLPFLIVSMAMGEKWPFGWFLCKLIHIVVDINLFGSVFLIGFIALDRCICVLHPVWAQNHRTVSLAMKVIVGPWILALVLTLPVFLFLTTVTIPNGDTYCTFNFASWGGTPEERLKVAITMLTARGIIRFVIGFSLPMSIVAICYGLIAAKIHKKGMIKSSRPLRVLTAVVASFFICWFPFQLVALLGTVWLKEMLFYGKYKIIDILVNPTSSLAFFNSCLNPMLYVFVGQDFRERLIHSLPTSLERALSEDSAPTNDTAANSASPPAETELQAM

T3: murine FPR1 (murine, UniProt P33766 1-364)
T3 construct: formyl peptide receptor 1, mouse, overexpressed in HEK293 cells; also called murine formyl peptide receptor 1; source: HEK293 overexpressing FPRs, membrane debris
T3 sequence (looked up): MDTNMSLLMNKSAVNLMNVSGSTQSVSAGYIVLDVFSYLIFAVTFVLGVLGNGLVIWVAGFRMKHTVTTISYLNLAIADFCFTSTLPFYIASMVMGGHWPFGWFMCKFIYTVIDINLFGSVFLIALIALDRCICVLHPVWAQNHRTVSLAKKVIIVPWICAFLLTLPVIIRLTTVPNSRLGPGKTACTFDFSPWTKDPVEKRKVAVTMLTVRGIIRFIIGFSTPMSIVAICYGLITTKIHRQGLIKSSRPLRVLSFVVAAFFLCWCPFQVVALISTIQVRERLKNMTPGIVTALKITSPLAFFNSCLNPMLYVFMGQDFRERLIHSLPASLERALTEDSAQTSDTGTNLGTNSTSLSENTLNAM

T4: murine FPR2 (murine, UniProt O88536 1-351)
T4 construct: formyl peptide receptor 2, mouse, overexpressed in HEK293 cells; also called murine formyl peptide receptor 2; source: HEK293 overexpressing FPRs, membrane debris
T4 sequence (looked up): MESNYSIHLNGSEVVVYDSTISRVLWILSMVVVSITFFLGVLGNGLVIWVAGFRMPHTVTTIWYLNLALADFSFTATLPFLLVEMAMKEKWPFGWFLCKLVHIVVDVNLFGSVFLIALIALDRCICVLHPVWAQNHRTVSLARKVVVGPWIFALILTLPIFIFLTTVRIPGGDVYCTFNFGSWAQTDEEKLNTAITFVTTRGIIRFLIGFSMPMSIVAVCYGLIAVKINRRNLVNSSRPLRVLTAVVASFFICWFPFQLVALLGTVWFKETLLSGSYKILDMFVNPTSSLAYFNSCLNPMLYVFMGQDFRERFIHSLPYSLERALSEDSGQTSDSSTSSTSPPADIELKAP


How the values were obtained:
Experiment in all cases: other fluorescence titration; competitive binding assay; labelled SCIMP^N mixed with serially diluted fMLF (5-1280 nM) and a fixed amount of FPR-containing HEK293 membrane debris, fluorescence at 512 nm measured for 4 min; only the binder purified
[1] = target: T1, human formyl peptide receptor 1 (FPR1)
[2] = target: T2, human formyl peptide receptor 2 (FPR2)
murine FPR1 = target: T3, murine FPR1
murine FPR2 = target: T4, murine FPR2

binding [1] | binding [2] | binding (murine FPR1) | binding (murine FPR2) | Binder
binds | binds | – | – | MDTFTVQDSTAMSWWRNN (labeled with BODIPY FL iodoacetamide (site not stated)) [human SCIMP N-terminus peptide (SCIMP^N, 18aa)]
– | – | binds | binds | MSWWRDNF (labeled with BODIPY FL iodoacetamide (site not stated)) [murine SCIMP N-terminus peptide (murine SCIMP^N)]
